Measured values taken from PMC6925144, “A prospective compound screening contest identified broader inhibitors for Sirtuin 1” (Scientific Reports, 2019).
The full ranking holds about 3,200 compounds; the median of “TSA(without NAD+) / Primary screening (TSA) / delta Tm (K)” is about -0.07, and the highest 2% start at about 0.37. The list shows a part of the results.

The chains behind the UniProt entries cited, without tags or fusion partners. Residues count along the entry.
UniProt Q96EB6, 2-747 limits assumed: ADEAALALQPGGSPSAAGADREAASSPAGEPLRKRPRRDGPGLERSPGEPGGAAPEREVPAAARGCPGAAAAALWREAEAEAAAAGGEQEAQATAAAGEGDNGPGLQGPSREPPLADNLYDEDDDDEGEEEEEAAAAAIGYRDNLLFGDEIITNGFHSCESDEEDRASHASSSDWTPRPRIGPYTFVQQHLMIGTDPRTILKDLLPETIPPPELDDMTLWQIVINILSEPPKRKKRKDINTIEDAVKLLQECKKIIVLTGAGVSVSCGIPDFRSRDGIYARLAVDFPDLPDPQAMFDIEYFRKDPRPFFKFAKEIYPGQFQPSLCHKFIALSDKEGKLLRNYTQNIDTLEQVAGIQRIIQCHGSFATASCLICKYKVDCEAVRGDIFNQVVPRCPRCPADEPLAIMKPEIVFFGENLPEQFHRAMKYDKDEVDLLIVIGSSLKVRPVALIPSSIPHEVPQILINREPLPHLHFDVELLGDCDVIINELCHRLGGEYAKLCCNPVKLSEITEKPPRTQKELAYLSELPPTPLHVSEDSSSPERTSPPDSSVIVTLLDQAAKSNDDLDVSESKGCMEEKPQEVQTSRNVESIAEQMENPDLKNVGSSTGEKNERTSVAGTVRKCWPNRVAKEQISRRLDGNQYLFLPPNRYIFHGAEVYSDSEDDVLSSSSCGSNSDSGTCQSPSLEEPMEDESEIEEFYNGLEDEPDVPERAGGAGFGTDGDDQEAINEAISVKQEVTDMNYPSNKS

molecular target: NAD-dependent deacetylase Sirtuin 1 (human, UniProt Q96EB6); assay: primary screen, delta tm; set-up: single well (n = 1); details: 10 µM
Outline: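 Thermal shift of Sirtuin 1 measured without NAD+, compound at 10 µM (n = 1); value is ΔTm, with hits defined as ΔTm > 0.45 K or < −1.5 K. Hits retested at 5, 10, 20 µM (n = 4) and counterscreened on bovine carbonic anhydrase and ABL1 SH2 domain.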

Structure (SMILES)	TSA(without NAD+) / Primary screening (TSA) / delta Tm (K)
CNc1[nH]cnc2ncnc1-2	0.05 K
CCc1cccc(C)c1NC(=O)c1cccc(S(=O)(=O)N(C)c2ccc(C)cc2)c1	-0.15 K
N#Cc1cn(CCCOc2ccccc2)c2ccc(Cl)cc2c1=O	-0.01 K
O=C(c1ccc[nH]1)N1CCCC1c1ccc2c(c1)OCCCO2 (stereo not shown)	-0.12 K
COc1ccc(C(=O)Nc2ccccc2Oc2ccccc2)cc1OC	-0.03 K
CCCOc1ccc(C2C(C(=O)c3ccc(OC)cc3)=C(O)C(=O)N2CCCN2CCOCC2)cc1 (stereo not shown)	0.05 K
CCC(OC)C(=O)O (stereo not shown)	0.06 K
c1ccc(-c2nc(-c3cnn(-c4ccccc4)n3)[nH]c2-c2ccccc2)cc1	0.15 K
O=C(Nc1ccccc1Cc1ccccc1)c1ccc(CN2C(=O)CNC2=O)cc1	0.02 K
Cc1ccc(NC(=O)CN(C)S(=O)(=O)c2ccc3c(c2)CC(=O)N3C)cc1	0.08 K
Cc1sc2ncnc(N3CCC(C(=O)Nc4sc5c(c4C(N)=O)CCC(C)C5)CC3)c2c1C (stereo not shown)	-0.01 K
O=C(Cc1c[nH]c2ccccc12)NCc1ccc(-c2ccc(O)cc2)cc1	-0.07 K
CN(c1ccc2ccccc2c1)S(=O)(=O)c1cccc(C#N)c1	-0.18 K
COc1ccc2cc(/C=C/C(=O)Nc3ccc(C(N)=O)cc3)ccc2c1	0.36 K
CN(c1ccccc1)S(=O)(=O)c1cccc(C(=O)OCC(=O)Nc2ccc(C(N)=O)cc2)c1	0.13 K
COc1cccc(-n2ccnc2SC2CCCCNC2=O)c1 (stereo not shown)	0.06 K
COc1ccc(C(=O)C2=C(O)C(=O)N(CCCN3CCOCC3)C2c2ccccc2)cc1 (stereo not shown)	-0.12 K
Cc1cn2c3c(=O)[nH]c(=O)n(C)c3nc2n1CCCN1CCc2ccccc2C1	-0.22 K
OCCNc1ncnc2ccsc12	-0.13 K
COC(=O)c1ccc2[nH]cnc2c1	-0.21 K
OC1CCN(c2ncnc3ccsc23)CC1	-0.18 K
CN(c1cccnc1)S(=O)(=O)c1cnc2c(c1)c(=O)[nH]c(=O)n2C	-0.17 K
O=C1/C(=C\c2cc3ccccc3nc2N2CCOCC2)Oc2cc(O)ccc21	0.09 K

8 compounds from above, sorted by molecular weight, low to high.
Structure (SMILES)	TSA(without NAD+) / Primary screening (TSA) / delta Tm (K)
CCC(OC)C(=O)O (stereo not shown)	0.06 K
OCCNc1ncnc2ccsc12	-0.13 K
CN(c1ccc2ccccc2c1)S(=O)(=O)c1cccc(C#N)c1	-0.18 K
CN(c1cccnc1)S(=O)(=O)c1cnc2c(c1)c(=O)[nH]c(=O)n2C	-0.17 K
Cc1ccc(NC(=O)CN(C)S(=O)(=O)c2ccc3c(c2)CC(=O)N3C)cc1	0.08 K
CCc1cccc(C)c1NC(=O)c1cccc(S(=O)(=O)N(C)c2ccc(C)cc2)c1	-0.15 K
COc1ccc(C(=O)C2=C(O)C(=O)N(CCCN3CCOCC3)C2c2ccccc2)cc1 (stereo not shown)	-0.12 K
CN(c1ccccc1)S(=O)(=O)c1cccc(C(=O)OCC(=O)Nc2ccc(C(N)=O)cc2)c1	0.13 K

Continued.

Structure (SMILES)	TSA(without NAD+) / Primary screening (TSA) / delta Tm (K)
O=C(COC(=O)CN1C(=O)CSc2ccccc21)Nc1ccccc1SCc1ccccc1	0.07 K
COCc1c(C(=O)Nc2ccc(N3CCN(Cc4ccccc4)CC3)cc2)oc2ccccc12	-0.13 K
CCNC(=O)c1cccc(NC(=O)C2CCN(S(=O)(=O)c3cc(C(C)(C)C)ccc3C)CC2)c1	0.17 K
COc1ccc(Br)cc1/C=C1/Oc2cc(O)ccc2C1=O	-0.13 K
Cc1ccc(-c2cc(NC(=O)CSc3nnc(NCc4ccco4)s3)on2)cc1	0.08 K
COc1ccc(C2C(C(=O)c3ccc(C)cc3)=C(O)C(=O)N2CCCN2CCOCC2)cc1 (stereo not shown)	-0.17 K
CN(c1ccccc1)S(=O)(=O)c1cccc(C(=O)NCCc2c[nH]c3ccccc23)c1	0.16 K
CCCCC(CNC(=O)OC(C)(C)C)NC(=O)CCCc1nc2ccccc2c(=O)[nH]1 (stereo not shown)	-0.14 K
CCOc1cccc(/C=C2/Oc3cc(O)ccc3C2=O)c1OC	-0.02 K
NC(=O)CC1CCN(C(=O)c2ccn(-c3cccc(Cl)c3)n2)CC1	-0.03 K
COc1ccc(-n2c(SCc3ccc([N+](=O)[O-])cc3)nnc2-c2ccccc2OC)cc1	-0.08 K
O=C(CN1CCOCC1)N1CCNCC1	-0.21 K
O=C(Nc1cnc2ccccc2c1)C(=O)N1CCC(Oc2ccccc2)CC1	0.07 K
CCS(=O)(=O)N1CCN(c2ccc(C(N)=O)cc2)CC1	-0.15 K
Cc1csc(N2CCN(c3cc(=O)n4ccccc4n3)CC2)n1	-0.05 K
CCCCn1c(N)c(N(CCOC)C(=O)c2cccc(S(=O)(=O)N(C)c3ccccc3)c2)c(=O)[nH]c1=O	-0.12 K
CN(c1cccc(Cl)c1)S(=O)(=O)c1cccc(C(=O)Nc2cc(C(N)=O)cc(C(N)=O)c2)c1	0.15 K
COc1cccc2c1OCC(Nc1cc(-c3nc(C)no3)ccn1)C2 (stereo not shown)	0.08 K
O=C(COC(=O)c1ccc(-n2cccc2)cc1)Nc1ccccc1Cc1ccccc1	-0.12 K
CC(C)C(=O)NN	-0.03 K
CCOC(=O)c1cnc2ccccc2c1NC1CCN(C(=O)OCC)CC1	-0.12 K
CCCN(Cc1ccc(C(N)=O)cc1)Cc1nnc(-c2ccco2)o1	-0.07 K
Cn1c(=O)[nH]c(=O)c2c1nc(N1CCC(C(N)=O)CC1)n2CCSc1nc2ccccc2o1	0.02 K
